# This is one part of the list.
# B1: BT4246 (Bacteroides thetaiotaomicron), Q89ZX5 (protein)
# chain: MGSSHHHHHHENLYFQGHMASDYLDVVPPEQPNIDDAMSSPTRALGFLYSCYGGVSTDLPSAYLGEINSTTDEYVLPYSWNTDGYWGAYAFNTASSTNQDWLWGTTYQYIGQCYLFLQKLENAGSDIASDAEKEQWRAECQFLVAYYHFATLRRYGPIPITDSYIPMDTPTSEYNGRFHFDYCVDWIANQLDEAAKVLPANRTVTNEWGRATSTIAKAVKARLLLYAASPLWNGSFPYPNWQNENFETPGYGKALVSNTYDKSKWERALAACQEALTLATTSGDRELYDDDEYYSRQSLNLPFVPGVADVEDNKEFLKNVMKMRYAVSTRESEGNKEIIWGLSNQFDFYSRYPLRILKKSDGTWHAGYSGVSPTLYTFEHFYTANGKLPEKDLDFTPSSEWFESAGISSREDIIKLNVGREPRFYAWMAFDGGDYGTKFAAGSPLKLEMRNSEMHGYNPSLFNRDHSVTGFLTQKFVDPVTEFYTAGGSTSGTSAPTILFRLAELYLNVAECHAALGNTQEAIDALNPVRERAGIPKLTLADITNNMTIKDWVHNERFVELWNEGHRFFDVRRWAEGAKYFGANKREGLNAEVQSPTFEEFNKRTTVDAPYVWENRMYLNPVFYNEVYKNPQMVQAPGY
# What was measured:
# Test in all cases: glycan array binding signal (z-score within array); higher = stronger binding
# Settings in all cases: glycan notation: IUPAC condensed, linker removed
# [1] = target: GlcNAc(a1-6)Gal(b1-4)GlcNAc
# Method in brief: (§1)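 Glycan array data were curated from 3228 arrays in the Consortium for Functional Glycomics database and kept only where the protein sequence was available. Glycan names were converted to IUPAC-condensed notation, and columns mapping to the same glycan were averaged. The binding signal is a within-array Z-score, averaged across arrays of the same protein sequence at different concentrations or buffers and across linkers. Negative Z-scores can be read as non-binding.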
# [2] = target: GlcNAc(b1-2)Gal(b1-3)GalNAc
# Method in brief: as §1
# [3] = target: GlcNAc(b1-2)Man(a1-3)[GlcNAc(b1-2)Man(a1-6)]Man(b1-4)GlcNAc(b1-4)GlcNAc
# Method in brief: as §1
# [4] = target: GlcNAc(b1-2)Man(a1-3)[GlcNAc(b1-2)Man(a1-6)]Man(b1-4)GlcNAc(b1-4)[Fuc(a1-6)]GlcNAc
# Method in brief: as §1
# [5] = target: GlcNAc(b1-2)Man(a1-3)[GlcNAc(b1-4)][GlcNAc(b1-2)Man(a1-6)]Man(b1-4)GlcNAc(b1-4)GlcNAc
# Method in brief: as §1
# [6] = target: GlcNAc(b1-2)Man(a1-3)[GlcNAc(b1-4)][GlcNAc(b1-2)Man(a1-6)]Man(b1-4)GlcNAc(b1-4)[Fuc(a1-6)]GlcNAc
# Method in brief: as §1
# [7] = target: GlcNAc(b1-2)[GlcNAc(b1-4)]Man(a1-3)[GlcNAc(b1-2)Man(a1-6)]Man(b1-4)GlcNAc(b1-4)GlcNAc
# Method in brief: as §1
# [8] = target: GlcNAc(b1-2)[GlcNAc(b1-4)]Man(a1-3)[GlcNAc(b1-4)][GlcNAc(b1-2)Man(a1-6)]Man(b1-4)GlcNAc(b1-4)GlcNAc
# Method in brief: as §1
# [9] = target: GlcNAc(b1-2)[GlcNAc(b1-4)]Man(a1-3)[GlcNAc(b1-4)][GlcNAc(b1-2)[GlcNAc(b1-6)]Man(a1-6)]Man(b1-4)GlcNAc(b1-4)GlcNAc
# Method in brief: as §1
# [10] = target: GlcNAc(b1-2)[GlcNAc(b1-4)]Man(a1-3)[GlcNAc(b1-4)][GlcNAc(b1-2)[GlcNAc(b1-6)]Man(a1-6)]Man(b1-4)GlcNAc(b1-4)[Fuc(a1-6)]GlcNAc
# Method in brief: as §1
# [11] = target: GlcNAc(b1-2)[GlcNAc(b1-6)]Man(a1-6)[GlcNAc(b1-2)Man(a1-3)]Man(b1-4)GlcNAc(b1-4)GlcNAc
# Method in brief: as §1
# [12] = target: GlcNAc(b1-2)[GlcNAc(b1-6)]Man(a1-6)[GlcNAc(b1-2)Man(a1-3)]Man(b1-4)GlcNAc(b1-4)[Fuc(a1-6)]GlcNAc
# Method in brief: as §1
# [13] = target: GlcNAc(b1-2)[GlcNAc(b1-6)]Man(a1-6)[GlcNAc(b1-4)][GlcNAc(b1-2)Man(a1-3)]Man(b1-4)GlcNAc(b1-4)GlcNAc
# Method in brief: as §1
# GlcNAc(b1-3)Fuc = target: GlcNAc(b1-3)Fuc
# Method in brief: as §1
# GlcNAc(b1-3)Gal = target: GlcNAc(b1-3)Gal
# Method in brief: as §1
# [14] = target: GlcNAc(b1-3)Gal(b1-3)GalNAc
# Method in brief: as §1
# GlcNAc(b1-3)Gal(b1-4)Glc = target: GlcNAc(b1-3)Gal(b1-4)Glc
# Method in brief: as §1
# [15] = target: GlcNAc(b1-3)Gal(b1-4)GlcNAc
# Method in brief: as §1
# [16] = target: GlcNAc(b1-3)Gal(b1-4)GlcNAc(b1-2)Man(a1-3)[GlcNAc(b1-3)Gal(b1-4)GlcNAc(b1-2)Man(a1-6)]Man(b1-4)GlcNAc(b1-4)GlcNAc
# Method in brief: as §1
# [17] = target: GlcNAc(b1-3)Gal(b1-4)GlcNAc(b1-2)Man(a1-3)[GlcNAc(b1-3)Gal(b1-4)GlcNAc(b1-2)Man(a1-6)]Man(b1-4)GlcNAc(b1-4)[Fuc(a1-6)]GlcNAc
# Method in brief: as §1
# [18] = target: GlcNAc(b1-3)Gal(b1-4)GlcNAc(b1-2)[GlcNAc(b1-3)Gal(b1-4)GlcNAc(b1-6)]Man(a1-6)[GlcNAc(b1-3)Gal(b1-4)GlcNAc(b1-2)Man(a1-3)]Man(b1-4)GlcNAc(b1-4)GlcNAc
# Method in brief: as §1
# [19] = target: GlcNAc(b1-3)Gal(b1-4)GlcNAc(b1-3)Gal(b1-4)GlcNAc
# Method in brief: as §1
# [20] = target: GlcNAc(b1-3)Gal(b1-4)GlcNAc(b1-3)Gal(b1-4)GlcNAc(b1-2)Man(a1-3)[GlcNAc(b1-3)Gal(b1-4)GlcNAc(b1-3)Gal(b1-4)GlcNAc(b1-2)Man(a1-6)]Man(b1-4)GlcNAc(b1-4)GlcNAc
# Method in brief: as §1
# [21] = target: GlcNAc(b1-3)Gal(b1-4)GlcNAc(b1-3)Gal(b1-4)GlcNAc(b1-2)Man(a1-3)[GlcNAc(b1-3)Gal(b1-4)GlcNAc(b1-3)Gal(b1-4)GlcNAc(b1-2)Man(a1-6)]Man(b1-4)GlcNAc(b1-4)[Fuc(a1-6)]GlcNAc
# Method in brief: as §1
# [22] = target: GlcNAc(b1-3)Gal(b1-4)GlcNAc(b1-3)Gal(b1-4)GlcNAc(b1-2)[GlcNAc(b1-3)Gal(b1-4)GlcNAc(b1-3)Gal(b1-4)GlcNAc(b1-6)]Man(a1-6)[GlcNAc(b1-3)Gal(b1-4)GlcNAc(b1-3)Gal(b1-4)GlcNAc(b1-2)Man(a1-3)]Man(b1-4)GlcNAc(b1-4)[Fuc(a1-6)]GlcNAc
# Method in brief: as §1
# [23] = target: GlcNAc(b1-3)Gal(b1-4)GlcNAc(b1-3)Gal(b1-4)GlcNAc(b1-3)Gal(b1-4)GlcNAc(b1-2)Man(a1-3)[GlcNAc(b1-3)Gal(b1-4)GlcNAc(b1-3)Gal(b1-4)GlcNAc(b1-3)Gal(b1-4)GlcNAc(b1-2)Man(a1-6)]Man(b1-4)GlcNAc(b1-4)GlcNAc
# Method in brief: as §1
# [24] = target: GlcNAc(b1-3)Gal(b1-4)GlcNAc(b1-3)Gal(b1-4)GlcNAc(b1-3)Gal(b1-4)GlcNAc(b1-2)Man(a1-3)[GlcNAc(b1-3)Gal(b1-4)GlcNAc(b1-3)Gal(b1-4)GlcNAc(b1-3)Gal(b1-4)GlcNAc(b1-2)Man(a1-6)]Man(b1-4)GlcNAc(b1-4)[Fuc(a1-6)]GlcNAc
# Method in brief: as §1
# [25] = target: GlcNAc(b1-3)Gal(b1-4)GlcNAc(b1-3)Gal(b1-4)GlcNAc(b1-3)Gal(b1-4)GlcNAc(b1-2)[GlcNAc(b1-3)Gal(b1-4)GlcNAc(b1-3)Gal(b1-4)GlcNAc(b1-3)Gal(b1-4)GlcNAc(b1-6)]Man(a1-6)[GlcNAc(b1-3)Gal(b1-4)GlcNAc(b1-3)Gal(b1-4)GlcNAc(b1-3)Gal(b1-4)GlcNAc(b1-2)Man(a1-3)]Man(b1-4)GlcNAc(b1-4)[Fuc(a1-6)]GlcNAc
# Method in brief: as §1
# [26] = target: GlcNAc(b1-3)Gal(b1-4)GlcNAc(b1-3)Gal(b1-4)GlcNAc(b1-3)Gal(b1-4)GlcNAc(b1-3)Gal(b1-4)GlcNAc(b1-2)Man(a1-3)[GlcNAc(b1-3)Gal(b1-4)GlcNAc(b1-3)Gal(b1-4)GlcNAc(b1-3)Gal(b1-4)GlcNAc(b1-3)Gal(b1-4)GlcNAc(b1-2)Man(a1-6)]Man(b1-4)GlcNAc(b1-4)GlcNAc
# Method in brief: as §1
# [27] = target: GlcNAc(b1-3)Gal(b1-4)GlcNAc(b1-3)Gal(b1-4)GlcNAc(b1-3)Gal(b1-4)GlcNAc(b1-3)Gal(b1-4)GlcNAc(b1-2)Man(a1-3)[GlcNAc(b1-3)Gal(b1-4)GlcNAc(b1-3)Gal(b1-4)GlcNAc(b1-3)Gal(b1-4)GlcNAc(b1-3)Gal(b1-4)GlcNAc(b1-2)Man(a1-6)]Man(b1-4)GlcNAc(b1-4)[Fuc(a1-6)]GlcNAc
# Method in brief: as §1
binder,measurement,setting,value
B1,glycan array binding signal (z-score),[1],0.04
same,glycan array binding signal (z-score),[2],1.89
same,glycan array binding signal (z-score),[3],-0.692
same,glycan array binding signal (z-score),[4],-0.482
same,glycan array binding signal (z-score),[5],-0.351
same,glycan array binding signal (z-score),[6],2.52
same,glycan array binding signal (z-score),[7],-1.62
same,glycan array binding signal (z-score),[8],0.48
same,glycan array binding signal (z-score),[9],-0.031
same,glycan array binding signal (z-score),[10],0.184
same,glycan array binding signal (z-score),[11],-1.62
same,glycan array binding signal (z-score),[12],0.064
same,glycan array binding signal (z-score),[13],-0.634
same,glycan array binding signal (z-score),GlcNAc(b1-3)Fuc,1.1
same,glycan array binding signal (z-score),GlcNAc(b1-3)Gal,0.389
same,glycan array binding signal (z-score),[14],-0.081
same,glycan array binding signal (z-score),GlcNAc(b1-3)Gal(b1-4)Glc,0.837
same,glycan array binding signal (z-score),[15],0.235
same,glycan array binding signal (z-score),[16],0.802
same,glycan array binding signal (z-score),[17],1.55
same,glycan array binding signal (z-score),[18],0.786
same,glycan array binding signal (z-score),[19],-0.233
same,glycan array binding signal (z-score),[20],-0.667
same,glycan array binding signal (z-score),[21],-0.16
same,glycan array binding signal (z-score),[22],1.52
same,glycan array binding signal (z-score),[23],1.73
same,glycan array binding signal (z-score),[24],2.02
same,glycan array binding signal (z-score),[25],0.637
same,glycan array binding signal (z-score),[26],0.922
same,glycan array binding signal (z-score),[27],-0.328

# Shown with bars between the fields: part of the list above.
binder | measurement | setting | value
B1 | glycan array binding signal (z-score) | [7] | -1.62
same | glycan array binding signal (z-score) | [11] | -1.62
same | glycan array binding signal (z-score) | [14] | -0.081
same | glycan array binding signal (z-score) | GlcNAc(b1-3)Gal(b1-4)Glc | 0.837
same | glycan array binding signal (z-score) | [15] | 0.235
same | glycan array binding signal (z-score) | [23] | 1.73
same | glycan array binding signal (z-score) | [25] | 0.637
same | glycan array binding signal (z-score) | [26] | 0.922
